# No constants are given. Whether binding was seen depends on the method and setting. Binding seen in cells or lysates may run through a third protein. Some entries that bind do so weakly or less than the wild type.
# Amino acid sequences for entries named in this document (tags omitted).
# UniProt P12270: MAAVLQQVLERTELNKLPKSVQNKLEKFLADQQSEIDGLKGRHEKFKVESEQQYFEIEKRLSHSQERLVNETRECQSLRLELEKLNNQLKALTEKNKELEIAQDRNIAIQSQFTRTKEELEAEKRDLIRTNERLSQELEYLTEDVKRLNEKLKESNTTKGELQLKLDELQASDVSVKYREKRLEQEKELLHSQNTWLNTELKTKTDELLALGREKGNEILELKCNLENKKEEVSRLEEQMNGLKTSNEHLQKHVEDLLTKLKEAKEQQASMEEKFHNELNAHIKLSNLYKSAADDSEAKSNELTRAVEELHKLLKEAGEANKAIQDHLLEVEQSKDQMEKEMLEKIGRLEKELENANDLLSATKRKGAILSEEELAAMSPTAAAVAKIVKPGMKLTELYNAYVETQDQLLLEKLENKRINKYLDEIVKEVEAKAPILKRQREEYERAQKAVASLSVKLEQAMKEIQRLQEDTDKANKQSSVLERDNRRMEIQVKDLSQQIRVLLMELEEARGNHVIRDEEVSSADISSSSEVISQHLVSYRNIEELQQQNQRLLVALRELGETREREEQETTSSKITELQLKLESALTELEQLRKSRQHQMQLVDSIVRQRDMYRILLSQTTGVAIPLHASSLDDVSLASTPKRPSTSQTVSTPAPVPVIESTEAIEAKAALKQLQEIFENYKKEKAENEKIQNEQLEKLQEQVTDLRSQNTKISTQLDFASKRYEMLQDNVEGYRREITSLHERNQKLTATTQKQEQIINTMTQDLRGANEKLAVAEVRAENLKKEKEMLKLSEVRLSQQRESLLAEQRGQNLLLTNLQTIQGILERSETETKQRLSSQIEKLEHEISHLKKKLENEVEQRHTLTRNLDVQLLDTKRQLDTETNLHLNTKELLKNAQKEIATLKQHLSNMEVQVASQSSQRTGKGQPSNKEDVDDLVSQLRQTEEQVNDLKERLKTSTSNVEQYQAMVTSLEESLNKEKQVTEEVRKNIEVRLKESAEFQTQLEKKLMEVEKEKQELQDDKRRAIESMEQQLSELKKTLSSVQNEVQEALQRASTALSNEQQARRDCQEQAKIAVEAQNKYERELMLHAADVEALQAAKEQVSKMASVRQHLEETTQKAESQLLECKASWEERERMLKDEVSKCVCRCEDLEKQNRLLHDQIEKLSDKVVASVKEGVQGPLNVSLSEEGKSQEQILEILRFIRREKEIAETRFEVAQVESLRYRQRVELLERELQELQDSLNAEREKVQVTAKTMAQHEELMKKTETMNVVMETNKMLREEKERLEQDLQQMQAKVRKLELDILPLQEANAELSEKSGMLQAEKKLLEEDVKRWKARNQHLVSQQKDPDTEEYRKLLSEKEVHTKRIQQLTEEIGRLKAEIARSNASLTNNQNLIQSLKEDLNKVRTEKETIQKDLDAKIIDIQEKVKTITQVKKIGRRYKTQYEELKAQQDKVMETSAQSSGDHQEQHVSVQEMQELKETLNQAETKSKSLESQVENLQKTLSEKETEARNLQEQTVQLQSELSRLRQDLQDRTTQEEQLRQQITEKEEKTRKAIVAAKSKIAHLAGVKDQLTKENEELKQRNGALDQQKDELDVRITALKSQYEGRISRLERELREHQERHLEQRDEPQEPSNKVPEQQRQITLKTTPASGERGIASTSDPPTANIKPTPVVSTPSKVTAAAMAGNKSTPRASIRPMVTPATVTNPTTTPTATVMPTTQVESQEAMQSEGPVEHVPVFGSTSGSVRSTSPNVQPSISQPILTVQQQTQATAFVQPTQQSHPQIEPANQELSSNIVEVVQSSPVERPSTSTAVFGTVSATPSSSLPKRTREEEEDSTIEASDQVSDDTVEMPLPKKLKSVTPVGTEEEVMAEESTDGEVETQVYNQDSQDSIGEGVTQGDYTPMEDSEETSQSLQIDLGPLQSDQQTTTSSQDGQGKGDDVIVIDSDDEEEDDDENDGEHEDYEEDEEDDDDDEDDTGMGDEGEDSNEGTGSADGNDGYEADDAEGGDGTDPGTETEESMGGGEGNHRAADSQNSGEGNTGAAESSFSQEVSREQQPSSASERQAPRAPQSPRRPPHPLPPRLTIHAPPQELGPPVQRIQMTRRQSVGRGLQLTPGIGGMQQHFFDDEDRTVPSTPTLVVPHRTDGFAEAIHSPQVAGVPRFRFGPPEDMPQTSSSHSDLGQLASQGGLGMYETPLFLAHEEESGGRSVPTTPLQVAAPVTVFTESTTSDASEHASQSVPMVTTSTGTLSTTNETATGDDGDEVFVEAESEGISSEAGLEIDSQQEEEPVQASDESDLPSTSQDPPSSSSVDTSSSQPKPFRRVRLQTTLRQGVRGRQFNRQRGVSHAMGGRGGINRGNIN
# UniProt Q13838: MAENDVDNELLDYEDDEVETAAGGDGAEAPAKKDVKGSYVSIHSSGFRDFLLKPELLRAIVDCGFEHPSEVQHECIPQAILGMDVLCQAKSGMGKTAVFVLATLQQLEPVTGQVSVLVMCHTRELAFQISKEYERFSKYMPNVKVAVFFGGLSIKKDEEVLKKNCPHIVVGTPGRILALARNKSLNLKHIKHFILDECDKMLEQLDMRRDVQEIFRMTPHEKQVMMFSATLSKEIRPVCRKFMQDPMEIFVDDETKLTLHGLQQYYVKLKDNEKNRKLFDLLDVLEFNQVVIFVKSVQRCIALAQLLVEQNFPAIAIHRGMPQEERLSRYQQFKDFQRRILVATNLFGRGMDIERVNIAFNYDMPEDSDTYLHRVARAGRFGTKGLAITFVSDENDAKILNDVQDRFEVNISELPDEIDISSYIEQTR
# B1: Nxf1, Q9UBU9 1-619 (protein)
# chain: MADEGKSYSEHDDERVNFPQRKKKGRGPFRWKYGEGNRRSGRGGSGIRSSRLEEDDGDVAMSDAQDGPRVRYNPYTTRPNRRGDTWHDRDRIHVTVRRDRAPPERGGAGTSQDGTSKNWFKITIPYGRKYDKAWLLSMIQSKCSVPFTPIEFHYENTRAQFFVEDASTASALKAVNYKILDRENRRISIIINSSAPPHTILNELKPEQVEQLKLIMSKRYDGSQQALDLKGLRSDPDLVAQNIDVVLNRRSCMAATLRIIEENIPELLSLNLSNNRLYRLDDMSSIVQKAPNLKILNLSGNELKSERELDKIKGLKLEELWLDGNSLCDTFRDQSTYISAIRERFPKLLRLDGHELPPPIAFDVEAPTTLPPCKGSYFGTENLKSLVLHFLQQYYAIYDSGDRQGLLDAYHDGACCSLSIPFIPQNPARSSLAEYFKDSRNVKKLKDPTLRFRLLKHTRLNVVAFLNELPKTQHDVNSFVVDISAQTSTLLCFSVNGVFKEVDGKSRDSLRAFTRTFIAVPASNSGLCIVNDELFVRNASSEEIQRAFAMPAPTPSSSPVPTLSPEQQEMLQAFSTQSGMNLEWSQKCLQDNNWDYTRSAQAFTHLKAKGEIPEVAFMK
# Columns and labels:
# FLAG-TPR (human) = FLAG-TPR (human) (UniProt P12270); experiment: co-IP; Flp-In FLAG-TPR U2OS cells treated with doxycycline for 4 h, lysed and immunoprecipitated with anti-FLAG M2 beads (protein A beads as control); input, immunoprecipitates and unbound fraction separated by SDS-PAGE and immunoblotted
# FLAG-TPR (human), P12270 = experiment: as above; settings: remark: other sources report otherwise
molecule,measurement,setting,value
UAP56 (from UniProt Q13838 1-428),binding,FLAG-TPR (human),binds
B1,binding,"FLAG-TPR (human), P12270",binds

# — publication PMC7672458
